The record followed here is article PMC4754349, “Tripartite assembly of RND multidrug efflux pumps” (Nature Communications, 2016).

Results are given in words; binding and its absence hold for the method and conditions named.

In this test the target is T1, OprM reconstituted into nanodiscs (OprM–ND) (Pseudomonas aeruginosa) (UniProt Q51487).
T1 sequence: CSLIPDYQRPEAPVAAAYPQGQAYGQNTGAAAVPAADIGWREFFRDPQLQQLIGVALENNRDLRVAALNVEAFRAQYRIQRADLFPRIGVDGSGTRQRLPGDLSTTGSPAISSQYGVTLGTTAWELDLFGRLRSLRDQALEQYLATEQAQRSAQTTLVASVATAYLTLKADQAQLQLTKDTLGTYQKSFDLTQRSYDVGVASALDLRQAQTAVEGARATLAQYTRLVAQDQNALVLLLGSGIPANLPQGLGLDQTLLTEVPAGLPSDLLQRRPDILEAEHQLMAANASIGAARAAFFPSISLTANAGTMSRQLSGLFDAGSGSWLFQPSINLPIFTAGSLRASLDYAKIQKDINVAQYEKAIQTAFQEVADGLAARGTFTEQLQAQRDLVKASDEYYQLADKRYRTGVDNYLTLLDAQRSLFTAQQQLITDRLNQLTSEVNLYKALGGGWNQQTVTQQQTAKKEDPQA
As to the kind of experiment: native gel or EMSA; native PAGE, 4–15% gradient gel, Tris-Glycine running buffer, silver stained; nanodisc-reconstituted MexB and OprM mixed 1:1, with or without lipidated MexA (1:1:10 molar ratio); both purified.

B1: lipidated MexA (natural protein)
chain: CGKSEAPPPAQTPEVGIVTLEAQTVTLNTELPGRTNAFRIAEVRPQVNGIILKRLFKEGSDVKAGQQLYQIDPATYEADYQSAQANLASTQEQAQRYKLLVADQAVSKQQYADANAAYLQSKAAVEQARINLRYTKVLSPISGRIGRSAVTEGALVTNGQANAMATVQQLDPIYVDVTQPSTALLRLRRELASGQLERAGDNAAKVSLKLEDGSQYPLEGRLEFSEVSVDEGTGSVTIRAVFPNPNNELLPGMFVHAQLQEGVKQKAILAPQQGVTRDLKGQATALVVNAQNKVELRVIKADRVIGDKWLVTEGLNAGDKIITEGLQFVQPGVEVKTVPAKNVASAQKADAAPAKTDSKG
modifications: lipidated (palmitoylation of an N-terminal cysteinyl residue)
notes: MexA, periplasmic membrane fusion protein of Pseudomonas aeruginosa, native lipidated form, 39 kDa monomer; also called native lipid-modified MFP; source: E. coli C43ΔacrB, purified (HisTrap HP, gel filtration Superose 6), in 0.03% DDM
Take B1: the binding result is given as “no binding (condition: without MexB–ND)”.
